# From the M2OR odorant receptor database
# The entries are a selection whose mix differs from that of the whole data set. The calls were merged from several studies; some rest on single wells. This is one part of the list.
# What was measured:
# Settings in all cases: stereoisomer not certain
# [1] = molecular target: OR5M10 (Homo sapiens) (UniProt Q6IEU7)
# How it was run: (§1)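 Values were gathered from published papers (main text and supplementary material), with extra details requested from the original authors when needed, and checked for typos and inconsistencies. Each receptor–molecule pair is called responsive (active) if the original authors judged the measured signal statistically different from baseline, and non-responsive (inactive) otherwise. Assay methods varied by source, often transient mammalian cell-line luciferase assays. Recorded details include cell line, G-protein, co-transfected protein and tags.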
# [2] = molecular target: T1, OR5M11 (Homo sapiens) (UniProt Q96RB7)
# T1 sequence (whole entry): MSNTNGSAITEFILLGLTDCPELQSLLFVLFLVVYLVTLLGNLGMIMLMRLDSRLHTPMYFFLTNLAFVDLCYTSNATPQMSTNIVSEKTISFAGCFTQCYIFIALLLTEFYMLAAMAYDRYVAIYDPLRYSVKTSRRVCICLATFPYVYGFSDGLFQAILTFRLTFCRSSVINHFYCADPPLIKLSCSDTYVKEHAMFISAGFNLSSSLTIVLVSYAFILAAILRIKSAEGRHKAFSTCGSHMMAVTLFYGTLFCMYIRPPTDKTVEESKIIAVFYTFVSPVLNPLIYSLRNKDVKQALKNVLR
# How it was run: as §1
# [3] = system: T2, OR5M1
# T2 sequence (whole entry): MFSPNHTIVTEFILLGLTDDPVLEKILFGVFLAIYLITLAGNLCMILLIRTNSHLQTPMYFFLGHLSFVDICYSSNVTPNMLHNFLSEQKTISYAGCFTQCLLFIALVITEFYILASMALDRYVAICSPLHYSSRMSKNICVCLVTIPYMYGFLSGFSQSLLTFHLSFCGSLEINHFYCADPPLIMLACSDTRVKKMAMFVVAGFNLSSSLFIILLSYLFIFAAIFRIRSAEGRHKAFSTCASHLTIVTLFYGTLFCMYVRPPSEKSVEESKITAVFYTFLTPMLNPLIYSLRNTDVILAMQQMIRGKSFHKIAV
# How it was run: as §1
# [4] = molecular target: T3, OR5M8 (Homo sapiens) (UniProt Q8NGP6)
# T3 sequence (whole entry): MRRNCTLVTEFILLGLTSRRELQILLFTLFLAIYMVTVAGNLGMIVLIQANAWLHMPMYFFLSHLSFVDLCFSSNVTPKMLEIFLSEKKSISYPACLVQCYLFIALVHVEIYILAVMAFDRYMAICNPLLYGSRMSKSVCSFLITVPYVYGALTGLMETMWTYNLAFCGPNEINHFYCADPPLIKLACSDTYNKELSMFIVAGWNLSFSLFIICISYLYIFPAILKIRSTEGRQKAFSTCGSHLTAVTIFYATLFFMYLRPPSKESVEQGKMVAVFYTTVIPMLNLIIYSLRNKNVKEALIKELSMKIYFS
# How it was run: as §1
# [5] = system: T4, OR5MA
# T4 sequence (whole entry): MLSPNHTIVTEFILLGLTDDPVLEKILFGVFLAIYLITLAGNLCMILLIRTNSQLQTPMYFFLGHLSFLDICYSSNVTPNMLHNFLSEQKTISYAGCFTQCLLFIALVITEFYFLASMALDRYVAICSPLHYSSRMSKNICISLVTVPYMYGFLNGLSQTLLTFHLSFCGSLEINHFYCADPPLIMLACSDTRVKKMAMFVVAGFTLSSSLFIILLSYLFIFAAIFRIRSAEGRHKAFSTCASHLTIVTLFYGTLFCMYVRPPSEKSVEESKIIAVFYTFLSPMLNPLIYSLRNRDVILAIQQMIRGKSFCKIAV
# How it was run: as §1
# [6] = molecular target: T5, OR5P3 (Homo sapiens) (UniProt Q8WZ94)
# T5 sequence (whole entry): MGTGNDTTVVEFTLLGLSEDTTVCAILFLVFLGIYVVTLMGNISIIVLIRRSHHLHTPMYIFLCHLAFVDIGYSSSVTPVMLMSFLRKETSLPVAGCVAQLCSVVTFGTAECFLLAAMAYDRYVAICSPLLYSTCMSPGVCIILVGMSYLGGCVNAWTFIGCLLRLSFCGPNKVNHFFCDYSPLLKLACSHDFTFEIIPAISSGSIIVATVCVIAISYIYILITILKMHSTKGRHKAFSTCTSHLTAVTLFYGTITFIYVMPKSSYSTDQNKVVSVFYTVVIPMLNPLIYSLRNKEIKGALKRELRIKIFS
# How it was run: as §1
# [7] = system: T6, OR5R1
# T6 sequence (whole entry): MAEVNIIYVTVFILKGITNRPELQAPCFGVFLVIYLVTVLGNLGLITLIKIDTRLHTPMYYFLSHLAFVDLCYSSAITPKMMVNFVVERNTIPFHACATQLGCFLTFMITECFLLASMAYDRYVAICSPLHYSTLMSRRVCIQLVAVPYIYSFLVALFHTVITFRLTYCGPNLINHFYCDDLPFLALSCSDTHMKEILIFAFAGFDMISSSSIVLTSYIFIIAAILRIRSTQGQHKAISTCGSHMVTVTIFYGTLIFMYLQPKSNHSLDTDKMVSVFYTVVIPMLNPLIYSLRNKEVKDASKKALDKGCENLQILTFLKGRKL
# How it was run: as §1
# [8] = molecular target: T7, OR5T1 (Homo sapiens) (UniProt Q8NG75)
# T7 sequence (whole entry): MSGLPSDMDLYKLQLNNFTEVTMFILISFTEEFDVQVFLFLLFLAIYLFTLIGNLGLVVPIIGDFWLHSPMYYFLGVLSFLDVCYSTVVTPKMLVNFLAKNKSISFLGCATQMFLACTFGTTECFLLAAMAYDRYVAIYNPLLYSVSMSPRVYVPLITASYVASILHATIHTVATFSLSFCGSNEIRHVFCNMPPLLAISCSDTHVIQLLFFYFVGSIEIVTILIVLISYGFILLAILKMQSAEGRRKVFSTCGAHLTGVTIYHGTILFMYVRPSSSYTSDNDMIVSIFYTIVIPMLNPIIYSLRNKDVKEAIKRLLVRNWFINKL
# How it was run: as §1
# [9] = system: T8, OR5T1
# T8 sequence (whole entry): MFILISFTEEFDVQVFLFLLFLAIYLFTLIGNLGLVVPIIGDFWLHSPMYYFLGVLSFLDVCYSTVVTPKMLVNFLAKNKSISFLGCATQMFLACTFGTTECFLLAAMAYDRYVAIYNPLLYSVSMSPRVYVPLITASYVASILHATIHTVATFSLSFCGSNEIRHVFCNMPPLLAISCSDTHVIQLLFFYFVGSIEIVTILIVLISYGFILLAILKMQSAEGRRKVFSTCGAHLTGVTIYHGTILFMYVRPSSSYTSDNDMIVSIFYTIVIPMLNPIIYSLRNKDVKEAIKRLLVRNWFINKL
# How it was run: as §1
# [10] = molecular target: OR5T2 (Homo sapiens) (UniProt Q8NGG2)
# How it was run: as §1
# [11] = system: T9, OR5T2
# T9 sequence (whole entry): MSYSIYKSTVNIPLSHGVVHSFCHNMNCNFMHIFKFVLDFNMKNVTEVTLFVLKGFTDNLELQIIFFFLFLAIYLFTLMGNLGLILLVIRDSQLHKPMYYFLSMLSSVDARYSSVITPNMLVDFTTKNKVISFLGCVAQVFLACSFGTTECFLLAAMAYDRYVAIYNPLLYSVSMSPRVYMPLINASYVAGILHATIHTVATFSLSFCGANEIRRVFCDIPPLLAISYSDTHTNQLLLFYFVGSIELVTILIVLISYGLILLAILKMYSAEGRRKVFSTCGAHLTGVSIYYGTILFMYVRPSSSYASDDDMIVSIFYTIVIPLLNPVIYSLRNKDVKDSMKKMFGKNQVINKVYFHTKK
# How it was run: as §1
# [12] = system: T10, OR5T2; remark: listed apart in the source
# T10 sequence (whole entry): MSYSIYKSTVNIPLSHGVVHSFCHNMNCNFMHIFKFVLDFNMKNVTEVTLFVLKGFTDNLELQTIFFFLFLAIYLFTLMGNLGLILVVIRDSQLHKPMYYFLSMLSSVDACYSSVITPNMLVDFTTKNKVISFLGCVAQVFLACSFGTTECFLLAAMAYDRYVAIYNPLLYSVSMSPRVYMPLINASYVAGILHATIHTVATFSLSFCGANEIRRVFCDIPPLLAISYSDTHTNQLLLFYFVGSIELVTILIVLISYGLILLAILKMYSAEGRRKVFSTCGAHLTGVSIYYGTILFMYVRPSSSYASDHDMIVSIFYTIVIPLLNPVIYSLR
# How it was run: as §1
# [13] = molecular target: OR5T3 (Homo sapiens) (UniProt Q8NGG3)
# How it was run: as §1
# [14] = system: T11, OR5T3
# T11 sequence (whole entry): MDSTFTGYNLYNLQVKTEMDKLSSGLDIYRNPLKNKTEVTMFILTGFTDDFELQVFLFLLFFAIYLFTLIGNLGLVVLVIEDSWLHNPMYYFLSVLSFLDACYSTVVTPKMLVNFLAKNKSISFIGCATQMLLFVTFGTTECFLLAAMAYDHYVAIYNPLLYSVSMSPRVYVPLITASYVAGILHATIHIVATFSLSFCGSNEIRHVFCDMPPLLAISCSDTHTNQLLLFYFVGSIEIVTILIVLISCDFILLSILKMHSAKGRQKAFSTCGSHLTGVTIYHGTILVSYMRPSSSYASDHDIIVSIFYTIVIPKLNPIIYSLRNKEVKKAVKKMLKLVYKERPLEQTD
# How it was run: as §1
# [15] = molecular target: T12, OR5V1 (Homo sapiens) (UniProt Q9UGF6)
# T12 sequence (whole entry): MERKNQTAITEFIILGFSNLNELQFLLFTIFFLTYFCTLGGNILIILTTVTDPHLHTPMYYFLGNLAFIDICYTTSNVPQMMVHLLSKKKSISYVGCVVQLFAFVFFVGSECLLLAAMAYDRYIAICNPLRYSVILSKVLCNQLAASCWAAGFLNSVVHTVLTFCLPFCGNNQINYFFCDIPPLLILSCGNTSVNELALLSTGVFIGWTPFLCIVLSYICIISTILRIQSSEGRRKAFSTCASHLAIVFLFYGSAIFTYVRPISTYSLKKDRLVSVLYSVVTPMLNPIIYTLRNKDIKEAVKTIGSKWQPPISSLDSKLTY
# How it was run: as §1
# [16] = system: T13, OR5W2
# T13 sequence (whole entry): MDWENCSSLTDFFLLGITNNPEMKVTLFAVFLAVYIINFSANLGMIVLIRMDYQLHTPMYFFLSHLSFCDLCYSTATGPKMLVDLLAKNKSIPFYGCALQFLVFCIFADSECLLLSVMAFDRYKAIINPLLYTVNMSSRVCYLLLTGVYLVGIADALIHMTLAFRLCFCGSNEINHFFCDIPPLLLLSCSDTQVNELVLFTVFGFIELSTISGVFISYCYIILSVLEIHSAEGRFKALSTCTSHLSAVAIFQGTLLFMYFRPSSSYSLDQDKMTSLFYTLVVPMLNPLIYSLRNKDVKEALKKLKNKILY
# How it was run: as §1
# [17] = molecular target: T14, OR6A2 (Homo sapiens) (UniProt O95222)
# T14 sequence (whole entry): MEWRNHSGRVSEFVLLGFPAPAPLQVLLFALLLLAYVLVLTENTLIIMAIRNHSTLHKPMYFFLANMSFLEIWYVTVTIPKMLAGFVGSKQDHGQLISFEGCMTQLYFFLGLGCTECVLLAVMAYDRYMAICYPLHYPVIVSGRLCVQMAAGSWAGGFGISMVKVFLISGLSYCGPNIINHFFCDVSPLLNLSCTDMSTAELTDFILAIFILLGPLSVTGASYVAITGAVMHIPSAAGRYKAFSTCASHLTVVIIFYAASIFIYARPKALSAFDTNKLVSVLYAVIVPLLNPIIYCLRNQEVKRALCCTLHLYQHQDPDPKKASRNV
# How it was run: as §1
smiles,measurement,setting,value
CC12C=CCC1C1CCC3CC(=O)CCC3(C)C1CC2 (configuration not stated),odorant receptor agonist call,[1],inactive
same,odorant receptor agonist call,[2],inactive
same,odorant receptor agonist call,[3],active
same,odorant receptor agonist call,[4],inactive
same,odorant receptor agonist call,[5],inactive
same,odorant receptor agonist call,[6],inactive
same,odorant receptor agonist call,[7],inactive
same,odorant receptor agonist call,[8],inactive
same,odorant receptor agonist call,[9],inactive
same,odorant receptor agonist call,[10],inactive
same,odorant receptor agonist call,[11],inactive
same,odorant receptor agonist call,[12],inactive
same,odorant receptor agonist call,[13],inactive
same,odorant receptor agonist call,[14],inactive
same,odorant receptor agonist call,[15],inactive
same,odorant receptor agonist call,[16],inactive
same,odorant receptor agonist call,[17],inactive

# A portion taken from the entries so far:
smiles,measurement,setting,value
CC12C=CCC1C1CCC3CC(=O)CCC3(C)C1CC2 (configuration not stated),odorant receptor agonist call,[5],inactive
same,odorant receptor agonist call,[6],inactive
same,odorant receptor agonist call,[7],inactive
same,odorant receptor agonist call,[8],inactive
